For some assays here: At least one structure is not confirmed: it was looked up by name or label, or the drawing left a doubt. Some results were stated once for a whole list of compounds, not compound by compound.
Tests used:
[1] = tested on: NCI-H716 cells; test: GLP-1 (7-36) secretion by NCI-H716 cells; type: cell-based, Homo sapiens; settings: NCI-H716 cells starved of amino acids, stimulated 2 hours with amino acids at DME/F12 medium concentration
[2] = tested on: ribosomal protein S6 (rps6); test: AlphaScreen SureFire rps6 phosphorylation in primary rat skeletal muscle cells; type: cell-based; settings: primary RSkMC

Compound | decrease of supernatant GLP-1 (7-36) concentration below the lower buffer only stimulation [1] | inhibition of leucine-stimulated rps6 phosphorylation [2]
CC(C)C[C@H](N)C(=O)O [Leu only treatment, leucine] | above 10% | 
CO[C@H]1C[C@@H]2CC[C@@H](C)[C@@](O)(O2)C(=O)C(=O)N2CCCC[C@H]2C(=O)O[C@H]([C@H](C)C[C@@H]2CC[C@@H](O)[C@H](OC)C2)CC(=O)[C@H](C)/C=C(\C)[C@@H](O)[C@@H](OC)C(=O)[C@H](C)C[C@H](C)/C=C/C=C/C=C/1C [rapamycin] |  | inhibited in a dose dependent manner

Reference: patent US20160228506A1, “Compositions and Formulations for Prevention and Reduction of Tumorigenesis, Cancer Cell Proliferation and Invasion, and Methods of Production and Use Thereof in Cancer Treatment” (PRONUTRIA, INC., priority 2013, published 2016)
